# Certain results were filed several times, with different values. The list is limited to them. The source may hold further records. Values that stand side by side do not match, cause unknown; dose, time, organism, isomer or construct need not be as stated for each record.
# Test system: 15-PGDH protein
# Assay: Western blot of 15-PGDH protein levels in treated cell lines
# Format: cell-based
# Conditions: western blot / immuno-fluorescence
compound,measurement,value
COc1ccc(-c2cc(C(F)(F)F)n3nc(C(=O)N4CCCCC4)cc3n2)cc1,15-PGDH protein levels in colon cell lines,increases 15-PGDH protein levels and increase in 15-PGDH protein levels

# Reference: patent US10869871B2, “Compositions and methods of modulating short-chain dehydrogenase activity” (CASE WESTERN RESERVE UNIVERSITY, priority 2013, dated 2020)
